# Source: PubChem BioAssay AID588590 (National Center for Advancing Translational Sciences (NCATS), 2011)
# Chains of the proteins cited; added tags and fusions are not shown. Lines headed by an entry give the natural chain unless they say otherwise; changes in a name come on top.
# UniProt Q9UNA4: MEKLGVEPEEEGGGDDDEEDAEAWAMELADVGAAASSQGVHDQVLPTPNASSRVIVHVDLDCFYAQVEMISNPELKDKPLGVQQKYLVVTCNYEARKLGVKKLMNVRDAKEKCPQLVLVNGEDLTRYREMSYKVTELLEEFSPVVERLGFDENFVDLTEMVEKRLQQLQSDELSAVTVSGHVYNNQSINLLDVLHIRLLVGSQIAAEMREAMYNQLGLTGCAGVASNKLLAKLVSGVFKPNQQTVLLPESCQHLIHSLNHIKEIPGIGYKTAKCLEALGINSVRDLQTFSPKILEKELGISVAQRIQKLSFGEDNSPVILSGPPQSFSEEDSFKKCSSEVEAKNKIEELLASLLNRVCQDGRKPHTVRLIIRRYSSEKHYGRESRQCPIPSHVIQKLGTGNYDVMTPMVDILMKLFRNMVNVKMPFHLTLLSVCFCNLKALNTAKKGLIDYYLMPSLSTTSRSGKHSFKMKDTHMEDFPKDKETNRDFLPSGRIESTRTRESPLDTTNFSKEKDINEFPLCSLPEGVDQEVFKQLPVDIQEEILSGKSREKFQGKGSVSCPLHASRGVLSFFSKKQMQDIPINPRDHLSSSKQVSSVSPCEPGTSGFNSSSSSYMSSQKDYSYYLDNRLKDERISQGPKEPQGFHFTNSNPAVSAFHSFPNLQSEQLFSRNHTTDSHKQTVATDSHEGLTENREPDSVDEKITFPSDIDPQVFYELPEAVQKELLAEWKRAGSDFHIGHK
# “And” between values parts separate entries of the source, which are not always exact repeats. Equal entries are not always repeated. Out of some 390,000 compounds screened, about 4,000 (1%) were called active. Inconclusive means that the source gave no clear call. Such entries were picked first, then a sample of the others. Calls follow the shape of the dose curve; as a rule, active = well fitted inhibition curve with a large enough effect; inconclusive = small, poorly fitted or top-dose-only effect, or another doubt; inactive = no such curve, though single readings can be large or run the other way. Where the call is inconclusive, the potency comes from a doubtful curve fit.
# Target: DNA polymerase iota (Homo sapiens) (UniProt Q9UNA4)
# Assay: qHTS for Inhibitors of Polymerase Iota
# Settings: Pol iota fluorescent replication assay, 10 min; series mostly up to 115 µM; activity, negative = inhibition: at the top concentration
# Summary of the method: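 Pol iota at 10 nM preincubated 15 min with compounds at room temperature; reaction started with fluorescent substrate, 50 nM final. Fluorescence read kinetically at 0 and 10 min; buffer-only wells as negative control.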
# Potency is read from the fitted curve at half-maximal effect.
Structure (SMILES),Potency,"activity, negative = inhibition"
O=C(OCc1nnc(-c2ccccc2)o1)c1ccc(S(=O)(=O)NCc2ccco2)cc1,"inconclusive: 39.8 µM [inhibitor, partial curve, poor fit]",
CNS(=O)(=O)c1ccc2nc(NC(=O)/C=C/c3ccco3)sc2c1,active: 50.1 µM,
CS(=O)(=O)N(CC(=O)N/N=C/c1ccccc1C(=O)O)c1cccc(Cl)c1Cl,"inconclusive: 89.1 µM [inhibitor, single point]",
COc1ccc(C2=CC(c3cccc(C)c3)n3nnnc3N2)cc1 (stereo unspecified),"inconclusive: 89.1 µM [inhibitor, single point]",
Cc1ccc(S(=O)(=O)NN2C(=O)/C(=C/c3cccc(F)c3)SC2=S)cc1,"inconclusive: 15.8 µM [inhibitor, full curve]",
CCNc1ccccc1CP(=O)(c1ccccc1)c1ccccc1O (stereo unspecified),active: 14.1 µM,
NC(=O)c1cc(S(=O)(=O)N2CCN(c3cccc(Cl)c3)CC2)cs1,"inconclusive: 39.8 µM [inhibitor, single point]",
O=c1[nH]c2cc(Cl)ccc2c(O)c1-c1ccc(Oc2ccccc2)cc1,"inconclusive: 44.7 µM [inhibitor, single point]",
COc1ccc(OCCCC(=O)Nc2ccc3c(c2)OCCO3)cc1,"inconclusive: 89.1 µM [inhibitor, partial curve, poor fit]",
Cc1ccccc1NC(=S)Nn1cnnc1,"inconclusive: 89.1 µM [inhibitor, single point]",
COc1ccc(C2C(C#N)=C(N)Oc3cc(C)n(Cc4ccco4)c(=O)c32)cc1 (stereo unspecified),active: 14.1 µM,
Cc1cc(C)n(CCc2nc(-c3ccc(C)o3)cs2)n1,"inconclusive: 28.2 µM [inhibitor, full curve]",
Cc1ccc(N2C(=O)CCSC23C(=O)Nc2ccccc23)cc1 (stereo unspecified),"inconclusive: 35.5 µM [inhibitor, single point]",
O=C(Cc1ccc(Cl)cc1)NCC(c1cccs1)S(=O)(=O)c1ccc(F)cc1 (stereo unspecified),,inactive: 42.8%
Cn1cnc(S(=O)(=O)N2CCC(C(=O)NCc3ccc(F)cc3)CC2)c1,,inactive: -3.34%
COc1cccc(C(=O)Nc2ccccc2-c2nnc(-c3cc(OC)ccc3Br)o2)c1,,inactive: 16.3%
CN(Cc1ccccc1)C(=O)C1CCN(S(=O)(=O)c2ccc3nc4c(c(C(=O)O)c3c2)CCCC4)CC1,"inconclusive: 39.8 µM [inhibitor, full curve, poor fit] and inconclusive: 17.8 µM [inhibitor, full curve, poor fit]",
COc1ccc(NS(=O)(=O)c2ccc(Cl)c(NC(=O)c3cccnc3Cl)c2)cc1,"inconclusive: 2.24 µM [inhibitor, partial curve, poor fit]",
O=C(CCS(=O)(=O)c1cc(Br)cc2c1N(C(=O)C1CC1)CC2)Nc1ccc(C(F)(F)F)cc1,"inconclusive: 100 µM [inhibitor, single point]",
CCOC(=O)C1CCN(S(=O)(=O)c2ccc(-c3nc4ccccc4s3)s2)CC1,"inconclusive: 25.1 µM [inhibitor, single point]",
Cc1nnc(NC(=O)C2CCCO2)s1 (stereo unspecified),"inconclusive: 31.6 µM [inhibitor, single point]",
Cc1cc(C)cc(NC(=O)C2CCC(CNS(=O)(=O)c3ccc4c(c3)C(C)(C)C(=O)N4C)CC2)c1 (stereo unspecified),,inactive: 18.9%

# Part of the list above, with bars between the fields:
Structure (SMILES) | Potency | activity, negative = inhibition
O=C(OCc1nnc(-c2ccccc2)o1)c1ccc(S(=O)(=O)NCc2ccco2)cc1 | inconclusive: 39.8 µM [inhibitor, partial curve, poor fit] | 
CNS(=O)(=O)c1ccc2nc(NC(=O)/C=C/c3ccco3)sc2c1 | active: 50.1 µM | 
CS(=O)(=O)N(CC(=O)N/N=C/c1ccccc1C(=O)O)c1cccc(Cl)c1Cl | inconclusive: 89.1 µM [inhibitor, single point] | 
Cc1ccc(S(=O)(=O)NN2C(=O)/C(=C/c3cccc(F)c3)SC2=S)cc1 | inconclusive: 15.8 µM [inhibitor, full curve] | 
CCNc1ccccc1CP(=O)(c1ccccc1)c1ccccc1O (stereo unspecified) | active: 14.1 µM | 
NC(=O)c1cc(S(=O)(=O)N2CCN(c3cccc(Cl)c3)CC2)cs1 | inconclusive: 39.8 µM [inhibitor, single point] | 
O=c1[nH]c2cc(Cl)ccc2c(O)c1-c1ccc(Oc2ccccc2)cc1 | inconclusive: 44.7 µM [inhibitor, single point] | 
COc1ccc(C2C(C#N)=C(N)Oc3cc(C)n(Cc4ccco4)c(=O)c32)cc1 (stereo unspecified) | active: 14.1 µM | 
Cc1ccc(N2C(=O)CCSC23C(=O)Nc2ccccc23)cc1 (stereo unspecified) | inconclusive: 35.5 µM [inhibitor, single point] | 
Cn1cnc(S(=O)(=O)N2CCC(C(=O)NCc3ccc(F)cc3)CC2)c1 |  | inactive: -3.34%
CN(Cc1ccccc1)C(=O)C1CCN(S(=O)(=O)c2ccc3nc4c(c(C(=O)O)c3c2)CCCC4)CC1 | inconclusive: 39.8 µM [inhibitor, full curve, poor fit] and inconclusive: 17.8 µM [inhibitor, full curve, poor fit] | 
COc1ccc(NS(=O)(=O)c2ccc(Cl)c(NC(=O)c3cccnc3Cl)c2)cc1 | inconclusive: 2.24 µM [inhibitor, partial curve, poor fit] | 
O=C(CCS(=O)(=O)c1cc(Br)cc2c1N(C(=O)C1CC1)CC2)Nc1ccc(C(F)(F)F)cc1 | inconclusive: 100 µM [inhibitor, single point] | 
Cc1nnc(NC(=O)C2CCCO2)s1 (stereo unspecified) | inconclusive: 31.6 µM [inhibitor, single point] | 
Cc1cc(C)cc(NC(=O)C2CCC(CNS(=O)(=O)c3ccc4c(c3)C(C)(C)C(=O)N4C)CC2)c1 (stereo unspecified) |  | inactive: 18.9%

# The list continues.

Structure (SMILES),Potency,"activity, negative = inhibition"
COc1cc(OC)cc(-c2nnc(SCC(=O)NCc3cccs3)o2)c1,"inconclusive: 100 µM [inhibitor, partial curve, poor fit]",
Cc1cc(C)n2nc(SCC(=O)NC(=O)NCc3ccco3)nc2n1,"inconclusive: 22.4 µM [inhibitor, single point]",
COc1ccc(CCN(C)CC(=O)Nc2c(C)cc(C)cc2C)cc1OC,"inconclusive: 3.16 µM [inhibitor, full curve, poor fit]",
COc1ccccc1C(=O)Nc1c(C(=O)N(C)c2ccccc2)sc2nc(C)cc(C)c12,active: 15.8 µM,
COC(=O)N1C(=O)[C@](CC(C)C)(c2ccccc2)N1C(=O)OC,"inconclusive: 39.8 µM [inhibitor, single point]",
COc1ccc(CCC(=O)NC2=NCCS2)cc1OC,"inconclusive: 35.5 µM [inhibitor, single point]",
Cc1ccc(C(=O)Oc2ccc(N3C(=O)CCC3=O)c(C)c2)cc1,"inconclusive: 89.1 µM [inhibitor, single point]",
Cc1cccc(NC(=O)c2oc3ccccc3c2NC(=O)c2cc(=O)c3cc(Cl)ccc3o2)c1,"inconclusive: 1.12 µM [inhibitor, partial curve, poor fit]",
CCOC(=O)c1ccc(-c2c(-c3ccccc3OC)sc3ccc(OC)cc23)cc1F,"inconclusive: 31.6 µM [inhibitor, partial curve, poor fit]",
OCc1ccc(O)c2ncccc12,"inconclusive: 12.6 µM [inhibitor, full curve, poor fit]",
O=C(Cc1cccs1)Nc1nc(-c2cccnc2)cs1,"inconclusive: 11.2 µM [inhibitor, full curve, poor fit]",
C/C(=N\Nc1ccc(Cl)c(C(=O)O)c1)c1ccc2c(c1)OCO2,,inactive: 46.1%
Nc1ccc(-c2nnn(Cc3ccccc3)n2)cc1,"inconclusive: 39.8 µM [inhibitor, single point]",
CCOc1ccc(C(=O)c2cccs2)cc1,"inconclusive: 10 µM [inhibitor, single point]",
Cc1ccc(S(=O)(=O)c2cc3c(=O)n4ccccc4nc3n(Cc3ccco3)c2=N)cc1,"inconclusive: 11.2 µM [inhibitor, full curve, poor fit]",
CCN(CC)CCCNC(=O)c1cc2c(-c3ccc(Cl)cc3)nn(C)c2s1,"inconclusive: 11.2 µM [inhibitor, partial curve, poor fit]",
CC(=O)Nc1cccc(/C(C)=N/Nc2ccc(S(=O)(=O)Nc3ccccc3C(=O)O)cc2[N+](=O)[O-])c1,"inconclusive: 14.1 µM [inhibitor, partial curve, poor fit]",
COc1ccc(C2Nc3ccccc3C(=O)N2c2ccccc2)cc1COc1ccc(NC(C)=O)cc1 (stereo unspecified),"inconclusive: 63.1 µM [inhibitor, partial curve, poor fit]",
O=C(/C=C/c1cccc(Br)c1)c1ccc2c(c1)OCO2,"inconclusive: 14.1 µM [inhibitor, full curve, poor fit]",
Cc1ccc(NC(=O)Cn2c(=O)n(CCC(=O)NCc3ccc4c(c3)OCO4)c(=O)c3sccc32)c(C)c1,,inactive: 10.1%
Clc1ccc(C2=Nn3c(Cn4nnc5ccccc54)nnc3SC2)cc1,"inconclusive: 22.4 µM [inhibitor, partial curve, poor fit]",
COc1ccccc1NC(=O)CSc1nc2ncccc2[nH]1,,inactive: 28%

Structure (SMILES),Potency,"activity, negative = inhibition"
O=C(Cn1c(=O)oc2cc(S(=O)(=O)N3CCCC3)ccc21)NC1CCCc2ccccc21 (stereo unspecified),"inconclusive: 22.4 µM [inhibitor, single point]",
O=C(Nc1cc(Sc2nc3ccccc3s2)cc([N+](=O)[O-])c1)c1ccccc1F,,inactive: 17%
O=C(CSc1nc2c(c(=O)[nH]1)CCCC2)Nc1ccc(Br)cc1,,inactive: 33.2%
Cc1cc(NC(=O)C2CC(c3cccc(Br)c3)=NO2)no1 (stereo unspecified),,inactive: -16.5%
CN1CC(=O)Nc2ccccc2C1=O,"inconclusive: 70.8 µM [inhibitor, partial curve]",
COc1ccccc1C(=O)OCc1cc(=O)n2ccsc2n1,"inconclusive: 25.1 µM [inhibitor, full curve]",
CC(C)OC(=O)c1cccc(C(=O)O)n1,"inconclusive: 31.6 µM [inhibitor, partial curve, poor fit]",
COc1ccc(CNC(=O)c2cc3c(s2)-c2c(C)cccc2OC3)cc1,"inconclusive: 89.1 µM [inhibitor, single point]",
O=C(NCc1ccncc1)c1c(F)c(F)c(F)c(F)c1F,"inconclusive: 3.16 µM [inhibitor, partial curve, poor fit]",
O=C(COc1cccc(F)c1)NNC(=O)Cc1ccc(Br)cc1,"inconclusive: 79.4 µM [inhibitor, partial curve]",
NC(N)=N/N=C(\N=Nc1ccccc1)c1ccc(Cl)cc1,,inactive: 8.85%
CC(CN1CCN(c2ccccc2)CC1)c1ccccc1 (stereo unspecified),active: 44.7 µM,
Cc1c(C(c2cccc([N+](=O)[O-])c2O)c2c(C)n(C)n(-c3ccccc3)c2=O)c(=O)n(-c2ccccc2)n1C,"inconclusive: 14.1 µM [inhibitor, partial curve]",
O=C(Cc1ccccc1)N/N=C/c1ccc(S(=O)(=O)O)o1,"inconclusive: 15.8 µM [inhibitor, partial curve, poor fit]",
O=C(OCC(=O)c1ccc[nH]1)c1ccc([N+](=O)[O-])cc1,,inactive: -8.58%
CN(CC(=O)Nc1ccc2c(c1)OCO2)S(=O)(=O)c1ccc2c(c1)CCC(=O)N2,,inactive: 5.73%
COc1ccc2ncc3c(-c4ccc(C)c(C)c4)nn(CC(=O)NC4CCCCC4)c3c2c1,"inconclusive: 89.1 µM [inhibitor, single point]",
Cc1ccc(-c2nc(-c3cccnc3)no2)c(C)c1,"inconclusive: 3.16 µM [inhibitor, partial curve, poor fit]",
CC(C)(O)c1cc2ccccc2c(=O)o1,"inconclusive: 12.6 µM [inhibitor, partial curve]",
Cc1snc(SCC(=O)c2ccc(F)cc2)c1C#N,,inactive: 77.7%
O=C(COc1cccc([N+](=O)[O-])c1)N/N=C/c1ccco1,active: 28.2 µM,
Oc1ccc(/C=N/n2c(-c3ccccc3)n[nH]c2=S)cc1,,inactive: 4.12%
